Measurements taken from article PMC10318462.
Where a chain is given by its changes, count along the chain named. The exact form of at least one protein or probe is not confirmed. For some assays here: No signal at the amounts used counts as a negative. For some assays here: Protein sequences can lack the tags named with them. For some assays here: The comparison behind a weaker result is the experiment's own reference, which may not be listed here.

Legend:
Assay in all cases: EMSA
[1] = target: T1, Fur-C96A (Escherichia coli) (UniProt P0A9A9); conditions: no cluster, data not shown; EMSA: 22 mM Tris pH 8.0, 7% glycerol, 4.1 mM MgCl2, 44 mM KCl, 55 mM NaCl, room temp 10 min, 0.7 nM DNA; recombinant protein; label: 5'-biotin on strand 1 (primer Fur-A)
T1 sequence (looked up, limits assumed): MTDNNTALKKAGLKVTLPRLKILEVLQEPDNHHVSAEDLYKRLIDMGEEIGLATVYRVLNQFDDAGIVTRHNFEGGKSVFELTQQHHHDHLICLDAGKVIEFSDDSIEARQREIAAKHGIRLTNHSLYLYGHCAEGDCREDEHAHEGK

[2] = target: T2, Red-Fur ([2Fe-2S]-bound Fur, ~36% occupancy) (Escherichia coli) (UniProt P0A9A9); conditions: [2Fe-2S], 1.0 uM completely shifts 0.7 nM DNA, EMSA: 22 mM Tris pH 8.0, 7% glycerol, 4.1 mM MgCl2, 44 mM KCl, 55 mM NaCl, room temp 10 min, recombinant protein, label: 5'-biotin on strand 1 (primer Fur-A)
T2 sequence (looked up, limits assumed): T1 sequence (looked up, limits assumed) with A96C

[3] = target: Apo-Fur (no [2Fe-2S]) (Escherichia coli) (UniProt P0A9A9); conditions: no cluster, very little or no binding up to 2.0 uM; EMSA: 22 mM Tris pH 8.0, 7% glycerol, 4.1 mM MgCl2, 44 mM KCl, 55 mM NaCl, room temp 10 min, 0.7 nM DNA; recombinant protein; label: 5'-biotin on strand 1 (primer Fur-A)
[4] = target: T3, Fur-C93A (Escherichia coli) (UniProt P0A9A9); conditions: no cluster, data not shown; EMSA: 22 mM Tris pH 8.0, 7% glycerol, 4.1 mM MgCl2, 44 mM KCl, 55 mM NaCl, room temp 10 min, 0.7 nM DNA; recombinant protein; label: 5'-biotin on strand 1 (primer Fur-A)
T3 sequence (looked up, limits assumed): T1 sequence (looked up, limits assumed) with C93A, A96C

[5] = target: T4, Red-Fur after removal of [2Fe-2S] (Escherichia coli) (UniProt P0A9A9); conditions: cluster removed, up to 2.0 uM; EMSA: 22 mM Tris pH 8.0, 7% glycerol, 4.1 mM MgCl2, 44 mM KCl, 55 mM NaCl, room temp 10 min, 0.7 nM DNA; recombinant protein; label: 5'-biotin on strand 1 (primer Fur-A)
T4 sequence (looked up, limits assumed): T1 sequence (looked up, limits assumed) with A96C

TTTAGGCGTGGCAATTCTATAATGATACGCATTATCTCAAGAGCAAATTCTGTCACTTCTTCTAATGAAGTGAACCGCTTAGTAACAGGACAGATTCCGCATGACTGATA (double strand) [fur promoter fragment with Fur-box (110 bp)]
binding result [1]: binds more weakly
binding result [2]: binds
binding result [3]: no binding
binding result [4]: binds more weakly
binding result [5]: no binding
